Results deposited as PubChem BioAssay AID652272 (Drosophila RNAi Screening Center, 2013)
Assay: 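Genes whose knock-down decreases or increases Hedgehog reporter output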 (primary screen). System: Drosophila clone 8 (Cl8) cells. Knock-down reagent: long dsRNA against Drosophila genes. Measurement: 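Firefly light from a Hedgehog-responsive ptc promoter reporter and Renilla reference light, both read on a plate reader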. Direction: firefly Hh reporter signal: higher = more ptc reporter light; Renilla reference signal: higher = more Renilla control light. Rule for the call: 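Hit when the z-score averaged over two replicates is under -2 or over +3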. Meaning of the calls: active = hit: reporter lowered or raised; inactive = not a hit.
In all, the deposit lists about 21,000 reagents; below is an unselected part of those that have a named target and a result. Of all reagents, 503 (2.4%) are marked active. 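Raw plate light values, not normalised; calls rest on replicate z-scores that were not deposited; hits include reporter decreases as well as increases.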 A number with no mark means an inactive call. Names joined by + are all predicted targets of the reagent. Not given: the amount of reagent, the time to read-out.

Gene	PubChem SID	firefly Hh reporter signal, replicate 1	firefly Hh reporter signal, replicate 2	firefly Hh reporter signal, replicate 3	Renilla reference signal, replicate 1	Renilla reference signal, replicate 2
CG11842	SID104194192	1.26e5	1.41e5		1200	3835
CG5934	SID104195714	85303	1.09e5		2827	3403
Toll-6	SID104191096	1.17e5			3576	3264
drongo	SID104180606	95433	83625		3600	3189
Jhbp11 (Juvenile hormone binding protein 11)	SID104194975	62374	1.06e5		1716	3403
CG4017	SID104182525	50212	44779		1482	3952
CG14286	SID104194559	4.34e5	76985		27130	2016
Polr2I (RNA polymerase II subunit I)	SID104196624	86648	66742		2514	1797
CG15312	SID104197792	78133	70612		1642	1632
mRpS14 (mitochondrial ribosomal protein S14)	SID104199236	1.09e5	1.48e5		4061	6311
how (held out wings)	SID104196758	8.00e5	1.73e5		48097	12829
D12	SID104183103	1.08e5	65833		5084	2568
CG30109	SID104185467	1.10e5	2.60e5		3210	9405
Kyat (Kynurenine aminotransferase)	SID104195939	51002	1.02e5		2016	2632
Roc2 (Regulator of cullins 2)	SID104187105	1.12e5	67271		2746	5424
Mst27D (Male specific transcript 27D)	SID104180759	7.20e5	1.84e5		35475	8308
CG32457	SID104191388	6.91e5	3.57e5	1.52e5	4843	7873
CG12811	SID104194341	1.18e5	95651		4155	2937
CG1371	SID104186201	58832	38162		2585	1668
foxo (forkhead box, sub-group O)	SID104192809	38965	21840		1349	3735
foxo (forkhead box, sub-group O)	SID104195255	1.55e5	1.23e5		5622	4661
Dscam1 (Down syndrome cell adhesion molecule 1)	SID104184839	1.36e5	2.64e5		3644	12428
Dscam1 (Down syndrome cell adhesion molecule 1)	SID104184840	1.26e5	2.66e5		3507	11257
Dscam1 (Down syndrome cell adhesion molecule 1)	SID104187199	89180	45307		2074	3559
CG34408	SID104197525	88333	85104		2235	2210
Rad17	SID104196603	51184	86752		1796	2276
CG3106	SID104198071	1.03e5	79463		2700	1997
Elp6 (Elongator complex protein 6)	SID104196363	1.32e5	70268		5277	1545
CG3548	SID104184179	71616	62114		2946	2528
CG10589	SID104191421	1.01e5	1.18e5		4073	3664
CG30020	SID104186044	4.91e5	67520		3962	3962
CG30020	SID104186522	1.03e5	42312		2376	336
Had1 (beta Hydroxy acid dehydrogenase 1)	SID104200008	71357	1.76e5		2582	7255
BORCS5 (BLOC-1 related complex subunit 5)	SID104199219	1.38e5	99584		3062	2109
P5cr-2 (Pyrroline-5-carboxylate reductase-like 2)	SID104195681	46084	74873		1136	1881
ccb (central complex broad)	SID104200293	72082	2.26e5		2176	8867
Mdh1 (Malate dehydrogenase 1)	SID104182638	1.89e5	77957		5111	7293
CG4646	SID104186668	88125	47393		2509	4166
CG13482	SID104189816	1.71e5	1.21e5		6849	5017
Vha68-3 (Vacuolar H[+] ATPase 68kD subunit 3)	SID104182601	1.50e5	56557		3764	5369
Trmt6 (tRNA methyltransferase 6 non-catalytic subunit)	SID104183064	1.17e5	63805		2032	6800
garz (gartenzwerg)	SID104186985	80040	31863		2338	3058
hrg (hiiragi)	SID104187294	1.00e5	47675		2818	3829
pico	SID104199222	64985	1.13e5		1475	4872
CG12290	SID104194289	98246	90221		2874	2569
CG8564	SID104190789	1.34e5	60485		4603	2508
otp (orthopedia)	SID104183842	77690	48284		1776	3777
otp (orthopedia)	SID104184499	82637	30920		2076	2707
CG12099	SID104188045	81280	73968		2160	5069
CG14131	SID104189927	37142	22841	46304	3595	4297
GrlHz (Gustatory receptor-like Holozoa)	SID104184216	90007	76402		3605	2884
Spt (Spitting Image)	SID104186915	1.35e5	62370		3645	5669
PLCXD	SID104182219	97304	5.71e5	61180	2459	31163
bw (brown)	SID104183797	1.40e5	2.16e5		3187	9680
bw (brown)	SID104184469	86096	58301		3164	2395
MED17 (Mediator complex subunit 17)	SID104196681	1.21e5	1.24e5		4486	4018
Rsph9 (Radial spoke head protein 9)	SID104181386	1.76e5	2.69e5		9089	13027
Pnn (Pinin)	SID104196207	68821	1.35e5		2434	3904
kug (kugelei)	SID104190703	1.17e5	55168		4685	2532
Ing3 (Inhibitor of growth family, member 3)	SID104199794	1.17e5	4.59e5	64481	3283	29034
Lgr4 (Leucine-rich repeat-containing G protein-coupled receptor 4)	SID104198761	4.13e5	1.38e5		22747	3232
Lgr4 (Leucine-rich repeat-containing G protein-coupled receptor 4)	SID104198762	3.91e5	2.51e5		23162	5552
Lgr4 (Leucine-rich repeat-containing G protein-coupled receptor 4)	SID104199676	73200	2.63e5		2183	9431
CG5880	SID104195698	1.34e5	63073		3194	1722
Sec71 (Secretory 71)	SID104181685	1.25e5	48230		3435	4761
hppy (happyhour)	SID104186806	64935	71544		960	5127
hppy (happyhour)	SID104186807	74355	88493		1200	6156
hppy (happyhour)	SID104186808	48704	58646		864	3288
CG42502 + CG10570	SID104181863	1.08e5	63508		4426	2710
sle (slender lobes)	SID104194349	86162	67232		3378	2916
CG9173	SID104188427	83421	50230		3251	3613
CG17784	SID104195060	5.56e5	1.16e5		27907	4148
PPP4R2r (Protein phosphatase 4 regulatory subunit 2-related protein)	SID104198487	1.62e5	6.88e5	3.23e5	4843	5874
